Measured values taken from paper PMC5059142.
Positions count from the first letter of the chain named. These are yes or no findings as the source states them, for the method shown. Binding seen in cells or lysates may run through a third protein. Some entries that bind do so weakly or less than the wild type. Where a sequence is shown, tags or fusion partners need not be part of it.

How the values were obtained:
[1] = target: T1, hTXNIP C247S-flag (human) (UniProt Q9H3M7); experiment: co-IP; TXNIP-V5 or C247S-flag co-expressed with hGLUT2 or hGLUT5; lysis in 0.5% Triton X-100, 0.1% sodium deoxycholate, 150 mM NaCl, 50 mM Tris, pH 7.8; Txnip protein complexes immunoprecipitated with antibodies and Protein A/G agarose beads; immunoblot
T1 sequence: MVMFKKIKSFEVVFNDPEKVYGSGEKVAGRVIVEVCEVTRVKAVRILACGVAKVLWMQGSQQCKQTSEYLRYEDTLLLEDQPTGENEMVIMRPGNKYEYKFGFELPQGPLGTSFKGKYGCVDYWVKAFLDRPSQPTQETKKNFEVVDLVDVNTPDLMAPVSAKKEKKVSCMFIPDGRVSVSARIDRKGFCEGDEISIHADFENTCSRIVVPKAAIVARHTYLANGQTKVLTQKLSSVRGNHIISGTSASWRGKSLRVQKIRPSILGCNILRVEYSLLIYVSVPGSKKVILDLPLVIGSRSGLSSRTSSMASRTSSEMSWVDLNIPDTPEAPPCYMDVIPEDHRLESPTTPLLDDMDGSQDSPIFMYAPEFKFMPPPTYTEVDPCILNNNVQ

[2] = target: T2, hTXNIP-V5 (human thioredoxin-interacting protein) (human) (UniProt Q9H3M7); experiment: as above
T2 sequence: T1 sequence with S247C

B1: hGLUT5 (human glucose transporter 5) (protein, UniProt P22732 1-501)
chain: MEQQDQSMKEGRLTLVLALATLIAAFGSSFQYGYNVAAVNSPALLMQQFYNETYYGRTGEFMEDFPLTLLWSVTVSMFPFGGFIGSLLVGPLVNKFGRKGALLFNNIFSIVPAILMGCSRVATSFELIIISRLLVGICAGVSSNVVPMYLGELAPKNLRGALGVVPQLFITVGILVAQIFGLRNLLANVDGWPILLGLTGVPAALQLLLLPFFPESPRYLLIQKKDEAAAKKALQTLRGWDSVDREVAEIRQEDEAEKAAGFISVLKLFRMRSLRWQLLSIIVLMGGQQLSGVNAIYYYADQIYLSAGVPEEHVQYVTAGTGAVNVVMTFCAVFVVELLGRRLLLLLGFSICLIACCVLTAALALQDTVSWMPYISIVCVISYVIGHALGPSPIPALLITEIFLQSSRPSAFMVGGSVHWLSNFTVGLIFPFIQEGLGPYSFIVFAVICLLTTIYIFLIVPETKAKTFIEINQIFTKMNKVSEVYPEKEELKELPPVTSEQ
B1 was tested, and the binding [1] was “binds” and the binding [2] was “binds”.
